Data reported in article PMC11253599.
Results are given in words; binding and its absence hold for the method and conditions named. Binding seen in cells or lysates may run through a third protein. Some entries that bind do so weakly or less than the wild type. For part of these data: Where a sequence is shown, tags or fusion partners need not be part of it.

B1: endogenous MX2 (myxovirus resistance protein 2) of PMA-differentiated U937 cells, P20592 1-715 (protein)
chain: MSKAHKPWPYRRRSQFSSRKYLKKEMNSFQQQPPPFGTVPPQMMFPPNWQGAEKDAAFLAKDFNFLTLNNQPPPGNRSQPRAMGPENNLYSQYEQKVRPCIDLIDSLRALGVEQDLALPAIAVIGDQSSGKSSVLEALSGVALPRGSGIVTRCPLVLKLKKQPCEAWAGRISYRNTELELQDPGQVEKEIHKAQNVMAGNGRGISHELISLEITSPEVPDLTIIDLPGITRVAVDNQPRDIGLQIKALIKKYIQRQQTINLVVVPCNVDIATTEALSMAHEVDPEGDRTIGILTKPDLMDRGTEKSVMNVVRNLTYPLKKGYMIVKCRGQQEITNRLSLAEATKKEITFFQTHPYFRVLLEEGSATVPRLAERLTTELIMHIQKSLPLLEGQIRESHQKATEELRRCGADIPSQEADKMFFLIEKIKMFNQDIEKLVEGEEVVRENETRLYNKIREDFKNWVGILATNTQKVKNIIHEEVEKYEKQYRGKELLGFVNYKTFEIIVHQYIQQLVEPALSMLQKAMEIIQQAFINVAKKHFGEFFNLNQTVQSTIEDIKVKHTAKAENMIQLQFRMEQMVFCQDQIYSVVLKKVREEIFNPLGTPSQNMKLNSHFPSNESSVSSFTEIGIHLNAYFLETSKRLANQIPFIIQYFMLRENGDSLQKAMMQILQEKNRYSWLLQEQSETATKRRILKERIYRLTQARHALCQFSSKEIH
B2: Myc-MX2-mCherry, P20592 1-715 (protein)
chain: B1 chain
B3: mCherry-MX2 (from pmCherry-C1-MX2), P20592 1-715 (protein)
chain: B1 chain

Columns and labels:
[1] = target: T1, SAMHD1-HA (human SAMHD1, wild type, from pVR1012-SAMHD1-HA) (human), Q9Y3Z3; experiment: co-IP; anti-HA IP of SAMHD1-HA; endogenous MX2 detected by immunoblotting with an MX2-specific antibody; conditions: remark: other sources report otherwise
[2] = target: T1, SAMHD1-HA (human SAMHD1, wild type, …); experiment: co-IP; HEK293T cells cotransfected, lysed 48 h later (150 mM Tris pH 7.5, 150 mM NaCl, 1% Triton X-100); anti-HA agarose beads at 4°C for 3 h or overnight; six washes; immunoblotting; conditions: remark: other sources report otherwise

Binder	binding [1]	binding [2]
B1	binds	
B2		binds
B3		binds
